Reference: PubChem BioAssay AID1259308 (NCATS, 2017)
The whole screen tested about 59,000 reagents; below is a part drawn at random. In the full data, about 1,510 (2.6%) got an active call. 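Calls use total luciferase alone and ignore viability, so some active siRNAs may act by altering cell number.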 The numbers tell different reagents against one gene apart. No sequences are given here.

Purpose: 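Genes whose loss raises luciferase production in HEK293 cells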 (primary screen)
Cells: human HEK293 embryonic kidney cells stably expressing firefly luciferase (HEK-CMV-Luc2-Hygro)
Reagents: single siRNA against human genes, 0.8 pmol siRNA per well
Duration: 72 h
Measurement: 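Luciferase light (ONE-Glo) measured on one replicate plate set and viability (CellTiter-Glo) on the other, scaled to a negative control siRNA, with robust z-scores and luciferase per cell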
Reading the numbers: total luciferase, z-score and total luciferase, % of control: higher = more reporter protein produced; luciferase per cell, z-score: higher = more reporter output per viable cell; viable cells, % of control: higher = more viable cells
Hit rule: 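Active when the median/MAD z-score for overall luciferase is greater than 3; a gene was taken forward for validation with new siRNAs if at least two of its three siRNAs passed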
Meaning of the calls: active = raised luciferase; inactive = no rise

no.	target	reagent	total luciferase, z-score	total luciferase, % of control	luciferase per cell, z-score	viable cells, % of control	activity call
1	TBC1D7 (TBC1 domain family member 7)	1	0.586	93.5	0.825	84.1	inactive
2	TBC1D7 (TBC1 domain family member 7)	2	-1.07	60.6	-1.2	93	inactive
3	TBC1D7 (TBC1 domain family member 7)	3	0.783	97.5	0.831	87.5	inactive
4	UGP2 (UDP-glucose pyrophosphorylase 2)	1	-0.733	67.3	-0.803	92.9	inactive
5	UGP2 (UDP-glucose pyrophosphorylase 2)	2	-0.135	79.2	-0.85	111	inactive
6	UGP2 (UDP-glucose pyrophosphorylase 2)	3	0.354	88.9	-0.262	106	inactive
7	PDZD9 (PDZ domain containing 9)	1	-0.902	64	-0.866	89.8	inactive
8	PDZD9 (PDZ domain containing 9)	2	-0.365	74.6	-0.43	93.4	inactive
9	PDZD9 (PDZ domain containing 9)	3	1.55	113	1.44	86.2	inactive
10	MOSMO (modulator of smoothened)	1	0.0581	83	-0.333	101	inactive
11	MOSMO (modulator of smoothened)	2	0.508	92	1.22	74.5	inactive
12	MOSMO (modulator of smoothened)	3	1.04	102	1.39	79.4	inactive
13	MYL12A (myosin light chain 12A)	1	-0.801	66	-0.589	86.1	inactive
14	MYL12A (myosin light chain 12A)	2	-0.704	67.9	-0.544	87.5	inactive
15	MYL12A (myosin light chain 12A)	3	-0.94	63.2	-0.992	91.7	inactive
16	NEURL1 (neuralized E3 ubiquitin protein ligase 1)	1	-0.173	78.4	-0.645	104	inactive
17	NEURL1 (neuralized E3 ubiquitin protein ligase 1)	2	0.412	90.1	0.174	96.1	inactive
18	NEURL1 (neuralized E3 ubiquitin protein ligase 1)	3	-1.32	55.6	-2.13	109	inactive
19	OR1A2 (olfactory receptor family 1 subfamily A member 2)	1	0.826	98.3	0.498	96.4	inactive
20	OR1A2 (olfactory receptor family 1 subfamily A member 2)	2	-0.0185	81.5	-0.423	102	inactive
21	OR1A2 (olfactory receptor family 1 subfamily A member 2)	3	1.37	109	-0.0204	123	inactive
22	MFNG (MFNG O-fucosylpeptide 3-beta-N-acetylglucosaminyltransferase)	1	-0.0227	81.4	0.885	72.1	inactive
23	MFNG (MFNG O-fucosylpeptide 3-beta-N-acetylglucosaminyltransferase)	2	0.0908	83.7	-0.0732	95.3	inactive
24	MFNG (MFNG O-fucosylpeptide 3-beta-N-acetylglucosaminyltransferase)	3	-0.793	66.1	-1.27	103	inactive

Looked up above:
Value of UGP2 (UDP-glucose pyrophosphorylase 2) #1 in “luciferase per cell, z-score”: -0.803
NEURL1 (neuralized E3 ubiquitin protein ligase 1) #3, total luciferase, z-score → -1.32
Entry for OR1A2 (olfactory receptor family 1 subfamily A member 2) #2 under “activity call”: inactive
